# According to the supplement of paper PMC8728848:
# This is one part of the list.
# B1: GST Gap3 (Streptococcus parasanguinis) (protein)
# chain: MTKQLISEIYWNEIRKGENYLYGSQIKFQEDLVNFYNPQLASGKPIVTFKSRTNYQGDRHSPDLPILIQGNRYLLEYQIDAVPANSFFLQLDFFNRQAEQIESIVLRNSGESFIFPKDTFTYTLTLMSAGCQSVTYQKFMIYDINDEEKKNHIVENRYLRELLPKDLDLVKNLIEYI
# Key:
# Assay in all cases: glycan array binding signal (z-score within array); higher = stronger binding
# Conditions in all cases: glycan notation: IUPAC condensed, linker removed
# [1] = molecular target: Fuc(a1-3)[Gal3S(b1-4)]Glc6S
# Method in brief: (§1)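 Glycan array data came from 3228 arrays in the Consortium for Functional Glycomics database, and only arrays with an available protein sequence were kept. Glycan names were put into IUPAC-condensed notation, and columns mapping to the same glycan were averaged. The binding signal is a within-array Z-score, averaged across arrays of one protein sequence run at different concentrations or buffers and across linkers. A negative Z-score can be read as non-binding.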
# [2] = molecular target: Fuc(a1-3)[Gal3S(b1-4)]GlcNAc
# Method in brief: as §1
# [3] = molecular target: Fuc(a1-3)[Gal3S(b1-4)]GlcNAc6S
# Method in brief: as §1
# [4] = molecular target: Fuc(a1-3)[GalNAc(b1-4)]GlcNAc
# Method in brief: as §1
# [5] = molecular target: Fuc(a1-3)[GalNAc(b1-4)]GlcNAc6S
# Method in brief: as §1
# Fuc(a1-4)GlcNAc = molecular target: Fuc(a1-4)GlcNAc
# Method in brief: as §1
# Fuc(b1-3)GlcNAc = molecular target: Fuc(b1-3)GlcNAc
# Method in brief: as §1
# Gal(a1-2)Gal = molecular target: Gal(a1-2)Gal
# Method in brief: as §1
# Gal(a1-3)Gal = molecular target: Gal(a1-3)Gal
# Method in brief: as §1
# Gal(a1-3)Gal(b1-3)GlcNAc = molecular target: Gal(a1-3)Gal(b1-3)GlcNAc
# Method in brief: as §1
# [6] = molecular target: Gal(a1-3)Gal(b1-3)GlcNAc(b1-2)Man
# Method in brief: as §1
# [7] = molecular target: Gal(a1-3)Gal(b1-3)GlcNAc(b1-2)Man(a1-3)[Gal(a1-3)Gal(b1-3)GlcNAc(b1-2)Man(a1-6)]Man(b1-4)GlcNAc(b1-4)GlcNAc
# Method in brief: as §1
# [8] = molecular target: Gal(a1-3)Gal(b1-3)GlcNAc(b1-3)GalNAc
# Method in brief: as §1
# [9] = molecular target: Gal(a1-3)Gal(b1-3)GlcNAc(b1-6)GalNAc
# Method in brief: as §1
# [10] = molecular target: Gal(a1-3)Gal(b1-3)[Fuc(a1-4)]GlcNAc(b1-2)Man(a1-3)[Gal(a1-3)Gal(b1-3)[Fuc(a1-4)]GlcNAc(b1-2)Man(a1-6)]Man(b1-4)GlcNAc(b1-4)GlcNAc
# Method in brief: as §1
# Gal(a1-3)Gal(b1-4)Glc = molecular target: Gal(a1-3)Gal(b1-4)Glc
# Method in brief: as §1
# Gal(a1-3)Gal(b1-4)GlcNAc = molecular target: Gal(a1-3)Gal(b1-4)GlcNAc
# Method in brief: as §1
# [11] = molecular target: Gal(a1-3)Gal(b1-4)GlcNAc(b1-2)Man
# Method in brief: as §1
# [12] = molecular target: Gal(a1-3)Gal(b1-4)GlcNAc(b1-2)Man(a1-3)[Gal(a1-3)Gal(b1-4)GlcNAc(b1-2)Man(a1-6)]Man(b1-4)GlcNAc(b1-4)GlcNAc
# Method in brief: as §1
# [13] = molecular target: Gal(a1-3)Gal(b1-4)GlcNAc(b1-3)GalNAc
# Method in brief: as §1
# [14] = molecular target: Gal(a1-3)Gal(b1-4)GlcNAc(b1-6)GalNAc
# Method in brief: as §1
# [15] = molecular target: Gal(a1-3)Gal(b1-4)[Fuc(a1-3)]GlcNAc
# Method in brief: as §1
# [16] = molecular target: Gal(a1-3)Gal(b1-4)[Fuc(a1-3)]GlcNAc(b1-2)Man(a1-3)[Gal(a1-3)Gal(b1-4)[Fuc(a1-3)]GlcNAc(b1-2)Man(a1-6)]Man(b1-4)GlcNAc(b1-4)GlcNAc
# Method in brief: as §1
# Gal(a1-3)GalNAc = molecular target: Gal(a1-3)GalNAc
# Method in brief: as §1
# [17] = molecular target: Gal(a1-3)[Gal(a1-4)]Gal(b1-4)GlcNAc
# Method in brief: as §1
# [18] = molecular target: Gal(a1-4)Gal(b1-3)GlcNAc(b1-2)Man(a1-3)[Gal(a1-4)Gal(b1-3)GlcNAc(b1-2)Man(a1-6)]Man(b1-4)GlcNAc(b1-4)GlcNAc
# Method in brief: as §1
# Gal(a1-4)Gal(b1-4)Glc = molecular target: Gal(a1-4)Gal(b1-4)Glc
# Method in brief: as §1
# Gal(a1-4)Gal(b1-4)GlcNAc = molecular target: Gal(a1-4)Gal(b1-4)GlcNAc
# Method in brief: as §1
# [19] = molecular target: Gal(a1-4)Gal(b1-4)GlcNAc(b1-2)Man(a1-3)[Gal(a1-4)Gal(b1-4)GlcNAc(b1-2)Man(a1-6)]Man(b1-4)GlcNAc(b1-4)GlcNAc
# Method in brief: as §1
# [20] = molecular target: Gal(a1-4)Gal(b1-4)GlcNAc(b1-3)Gal(b1-4)Glc
# Method in brief: as §1
# Gal(a1-4)GlcNAc = molecular target: Gal(a1-4)GlcNAc
# Method in brief: as §1
# Gal(a1-6)Glc = molecular target: Gal(a1-6)Glc
# Method in brief: as §1
# Gal(b1-2)Gal = molecular target: Gal(b1-2)Gal
# Method in brief: as §1
# Gal(b1-3)Gal = molecular target: Gal(b1-3)Gal
# Method in brief: as §1
# Gal(b1-3)Gal(b1-4)GlcNAc = molecular target: Gal(b1-3)Gal(b1-4)GlcNAc
# Method in brief: as §1
# [21] = molecular target: Gal(b1-3)Gal(b1-4)GlcNAc(b1-2)Man(a1-3)[Gal(b1-3)Gal(b1-4)GlcNAc(b1-2)Man(a1-6)]Man(b1-4)GlcNAc(b1-4)GlcNAc
# Method in brief: as §1
# Gal(b1-3)GalNAc = molecular target: Gal(b1-3)GalNAc
# Method in brief: as §1
# [22] = molecular target: Gal(b1-3)GalNAc(a1-3)[Fuc(a1-2)]Gal(b1-4)Glc
# Method in brief: as §1
binder,measurement,setting,value
B1,glycan array binding signal (z-score),[1],-0.1
same,glycan array binding signal (z-score),[2],-0.269
same,glycan array binding signal (z-score),[3],0.531
same,glycan array binding signal (z-score),[4],-0.383
same,glycan array binding signal (z-score),[5],0.226
same,glycan array binding signal (z-score),Fuc(a1-4)GlcNAc,-0.387
same,glycan array binding signal (z-score),Fuc(b1-3)GlcNAc,-0.437
same,glycan array binding signal (z-score),Gal(a1-2)Gal,-0.168
same,glycan array binding signal (z-score),Gal(a1-3)Gal,0.127
same,glycan array binding signal (z-score),Gal(a1-3)Gal(b1-3)GlcNAc,-0.139
same,glycan array binding signal (z-score),[6],-0.239
same,glycan array binding signal (z-score),[7],1.57
same,glycan array binding signal (z-score),[8],0.415
same,glycan array binding signal (z-score),[9],-0.062
same,glycan array binding signal (z-score),[10],0.8
same,glycan array binding signal (z-score),Gal(a1-3)Gal(b1-4)Glc,0.099
same,glycan array binding signal (z-score),Gal(a1-3)Gal(b1-4)GlcNAc,0.188
same,glycan array binding signal (z-score),[11],-0.118
same,glycan array binding signal (z-score),[12],-0.248
same,glycan array binding signal (z-score),[13],-0.262
same,glycan array binding signal (z-score),[14],-0.054
same,glycan array binding signal (z-score),[15],0.885
same,glycan array binding signal (z-score),[16],0.16
same,glycan array binding signal (z-score),Gal(a1-3)GalNAc,-0.06
same,glycan array binding signal (z-score),[17],0.146
same,glycan array binding signal (z-score),[18],0.18
same,glycan array binding signal (z-score),Gal(a1-4)Gal(b1-4)Glc,-0.1
same,glycan array binding signal (z-score),Gal(a1-4)Gal(b1-4)GlcNAc,-0.282
same,glycan array binding signal (z-score),[19],0.15
same,glycan array binding signal (z-score),[20],-0.218
same,glycan array binding signal (z-score),Gal(a1-4)GlcNAc,-0.054
same,glycan array binding signal (z-score),Gal(a1-6)Glc,0.127
same,glycan array binding signal (z-score),Gal(b1-2)Gal,-0.158
same,glycan array binding signal (z-score),Gal(b1-3)Gal,-0.235
same,glycan array binding signal (z-score),Gal(b1-3)Gal(b1-4)GlcNAc,-0.092
same,glycan array binding signal (z-score),[21],1.9
same,glycan array binding signal (z-score),Gal(b1-3)GalNAc,-0.182
same,glycan array binding signal (z-score),[22],-0.333

# Rewritten with tabs: part of the list above.
binder	measurement	setting	value
B1	glycan array binding signal (z-score)	Gal(a1-4)GlcNAc	-0.054
same	glycan array binding signal (z-score)	Gal(a1-6)Glc	0.127
same	glycan array binding signal (z-score)	Gal(b1-2)Gal	-0.158
same	glycan array binding signal (z-score)	Gal(b1-3)Gal	-0.235
same	glycan array binding signal (z-score)	Gal(b1-3)Gal(b1-4)GlcNAc	-0.092
same	glycan array binding signal (z-score)	[21]	1.9
same	glycan array binding signal (z-score)	Gal(b1-3)GalNAc	-0.182
